These are yes or no findings as the source states them, for the method shown. Binding seen in cells or lysates may run through a third protein. Some entries that bind do so weakly or less than the wild type. Tags and fused reporters may be left off the sequences shown.
Target: GST-tagged Nedd4-1, full length (UniProt P46935)
Assay: pull-down

Sequences of proteins named here, by UniProt entry; tags and fusion partners are left off.
UniProt P46935: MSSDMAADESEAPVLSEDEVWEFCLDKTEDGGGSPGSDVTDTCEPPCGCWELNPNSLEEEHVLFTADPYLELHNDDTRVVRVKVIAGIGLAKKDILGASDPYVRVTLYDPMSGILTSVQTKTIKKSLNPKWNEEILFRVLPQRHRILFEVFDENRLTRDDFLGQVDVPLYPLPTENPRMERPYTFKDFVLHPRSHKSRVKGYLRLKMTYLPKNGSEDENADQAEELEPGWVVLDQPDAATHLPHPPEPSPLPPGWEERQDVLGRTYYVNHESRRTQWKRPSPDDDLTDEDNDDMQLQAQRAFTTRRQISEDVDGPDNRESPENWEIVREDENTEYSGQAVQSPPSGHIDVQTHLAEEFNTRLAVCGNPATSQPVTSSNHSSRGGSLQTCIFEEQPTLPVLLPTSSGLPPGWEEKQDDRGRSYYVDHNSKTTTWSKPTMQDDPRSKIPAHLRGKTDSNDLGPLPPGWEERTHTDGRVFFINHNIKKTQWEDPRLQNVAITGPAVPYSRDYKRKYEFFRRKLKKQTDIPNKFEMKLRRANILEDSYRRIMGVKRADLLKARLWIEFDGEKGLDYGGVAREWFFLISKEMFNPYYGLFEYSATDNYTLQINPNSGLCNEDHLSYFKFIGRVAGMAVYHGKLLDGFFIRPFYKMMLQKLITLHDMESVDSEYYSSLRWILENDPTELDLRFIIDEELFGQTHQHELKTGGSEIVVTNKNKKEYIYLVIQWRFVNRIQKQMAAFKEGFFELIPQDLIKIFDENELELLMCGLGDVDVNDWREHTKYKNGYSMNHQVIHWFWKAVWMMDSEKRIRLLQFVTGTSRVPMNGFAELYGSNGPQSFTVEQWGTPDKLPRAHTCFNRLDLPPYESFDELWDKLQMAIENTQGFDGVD
UniProt P23242: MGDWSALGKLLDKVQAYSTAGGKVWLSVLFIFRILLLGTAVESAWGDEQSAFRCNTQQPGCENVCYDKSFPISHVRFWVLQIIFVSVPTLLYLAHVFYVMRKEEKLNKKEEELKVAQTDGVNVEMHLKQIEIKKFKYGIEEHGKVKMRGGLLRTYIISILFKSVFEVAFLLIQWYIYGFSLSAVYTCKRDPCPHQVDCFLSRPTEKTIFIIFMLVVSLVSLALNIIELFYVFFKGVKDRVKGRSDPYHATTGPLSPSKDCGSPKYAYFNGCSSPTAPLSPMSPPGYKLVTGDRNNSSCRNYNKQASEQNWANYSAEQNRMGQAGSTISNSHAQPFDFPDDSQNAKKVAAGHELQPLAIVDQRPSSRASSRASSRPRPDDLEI

Row | binding | Molecule
1 | binds | HA-tagged Connexin43 (gap junction alpha 1 protein) (from UniProt P23242 1-382)
2 | binds | HA-tagged Kir4.1 (inwardly rectifying K+ channel 4.1) (protein, UniProt Q9JM63 1-379) MTSVAKVYYSQTTQTESRPLVAPGIRRRRVLTKDGRSNVRMEHIADKRFLYLKDLWTTFIDMQWRYKLLLFSATFAGTWFLFGVVWYLVAVAHGDLLELGPPANHTPCVVQVHTLTGAFLFSLESQTTIGYGFRYISEECPLAIVLLIAQLVLTTILEIFITGTFLAKIARPKKRAETIRFSQHAVVASHNGKPCLMIRVANMRKSLLIGCQVTGKLLQTHQTKEGENIRLNQVNVTFQVDTASDSPFLILPLTFYHVVDETSPLKDLPLRSGEGDFELVLILSGTVESTSATCQVRTSYLPEEILWGYEFTPAISLSASGKYIADFSLFDQVVKVASPSGLRDSTVRYGDPEKLKLEESLREQAEKEGSALSVRISNV
